Assay results reported in patent publication US7238473.
Positions count from the first letter of the chain named. At least one result comes from cells or an extract, where the contact may be indirect. For some assays here: No signal at the amounts used counts as a negative. Where a protein sequence is shown, tags need not be part of it. For some assays here: Construct, isoform or probe ends are uncertain for at least one entry. For some assays here: The comparison behind a weaker result is the experiment's own reference, which may not be listed here.

Key:
[1] = target: T1, TTP (tristetraprolin) wild type (Homo sapiens) (UniProt P26651); assay: binding assay; conditions: UV cross-linking, protein in a lysate after overexpression, label: 32P-UTP
T1 sequence: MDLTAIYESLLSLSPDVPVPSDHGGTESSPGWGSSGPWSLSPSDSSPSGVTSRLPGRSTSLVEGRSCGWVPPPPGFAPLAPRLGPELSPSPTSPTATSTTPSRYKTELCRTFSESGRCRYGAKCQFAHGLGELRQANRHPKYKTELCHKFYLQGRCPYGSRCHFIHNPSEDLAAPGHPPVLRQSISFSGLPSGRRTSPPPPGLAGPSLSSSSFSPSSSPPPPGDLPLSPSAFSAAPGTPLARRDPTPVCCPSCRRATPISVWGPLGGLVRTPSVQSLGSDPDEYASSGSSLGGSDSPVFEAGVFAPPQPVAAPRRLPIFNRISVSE

[2] = target: T1, TTP (tristetraprolin) wild type (Homo sapiens); assay: EMSA; conditions: protein in a lysate after overexpression, label: 32P-UTP
TTP C124R (Homo sapiens) = target: T2, TTP C124R (Homo sapiens) (UniProt P26651); assay: EMSA; conditions: protein in a lysate after overexpression; protein details: C-terminal HA; label: 32P-UTP
T2 sequence: T1 sequence with C124R

TTP C147R (Homo sapiens) = target: T3, TTP C147R (Homo sapiens) (UniProt P26651); assay: EMSA; conditions: protein in a lysate after overexpression; protein details: C-terminal HA; label: 32P-UTP
T3 sequence: T1 sequence with C147R

TTP S228A (Homo sapiens) = target: T4, TTP S228A (Homo sapiens) (UniProt P26651); assay: EMSA; conditions: protein in a lysate after overexpression; protein details: C-terminal HA; label: 32P-UTP
T4 sequence: T1 sequence with S228A

[3] = target: T5, TTP(1-173) (Homo sapiens) (UniProt P26651); assay: EMSA; conditions: protein in a lysate after overexpression; protein details: C-terminal HA; label: 32P-UTP; variant of TNFa ARE probe 1281-1350
T5 sequence: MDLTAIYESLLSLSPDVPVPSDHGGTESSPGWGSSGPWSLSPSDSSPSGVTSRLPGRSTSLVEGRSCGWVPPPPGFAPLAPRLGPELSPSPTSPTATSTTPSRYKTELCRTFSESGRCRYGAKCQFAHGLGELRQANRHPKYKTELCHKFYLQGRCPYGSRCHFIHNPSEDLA

[4] = target: T6, TTP(97-173) (Homo sapiens) (UniProt P26651); assay: EMSA; conditions: protein in a lysate after overexpression; protein details: C-terminal HA; label: 32P-UTP; variant of TNFa ARE probe 1281-1350
T6 sequence: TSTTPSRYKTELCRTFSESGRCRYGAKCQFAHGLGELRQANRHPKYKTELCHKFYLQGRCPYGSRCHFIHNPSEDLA

[5] = target: T7, TTP(97-326) (Homo sapiens) (UniProt P26651); assay: EMSA; conditions: protein in a lysate after overexpression; protein details: C-terminal HA; label: 32P-UTP; variant of TNFa ARE probe 1281-1350
T7 sequence: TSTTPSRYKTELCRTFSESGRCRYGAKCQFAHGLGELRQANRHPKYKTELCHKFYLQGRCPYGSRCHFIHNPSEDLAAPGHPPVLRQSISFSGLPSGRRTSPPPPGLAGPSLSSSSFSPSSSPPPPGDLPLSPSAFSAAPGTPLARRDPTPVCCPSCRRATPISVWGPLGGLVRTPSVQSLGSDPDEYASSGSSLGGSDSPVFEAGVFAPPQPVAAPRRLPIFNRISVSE

[6] = target: T8, XC3H-3 (TIS11d/ERF2 homologue) (Xenopus laevis) (UniProt Q7ZXW9); assay: binding assay; conditions: UV cross-linking, protein in a lysate after overexpression, protein details: C-terminal HA, label: 32P-UTP
T8 sequence (looked up, limits assumed): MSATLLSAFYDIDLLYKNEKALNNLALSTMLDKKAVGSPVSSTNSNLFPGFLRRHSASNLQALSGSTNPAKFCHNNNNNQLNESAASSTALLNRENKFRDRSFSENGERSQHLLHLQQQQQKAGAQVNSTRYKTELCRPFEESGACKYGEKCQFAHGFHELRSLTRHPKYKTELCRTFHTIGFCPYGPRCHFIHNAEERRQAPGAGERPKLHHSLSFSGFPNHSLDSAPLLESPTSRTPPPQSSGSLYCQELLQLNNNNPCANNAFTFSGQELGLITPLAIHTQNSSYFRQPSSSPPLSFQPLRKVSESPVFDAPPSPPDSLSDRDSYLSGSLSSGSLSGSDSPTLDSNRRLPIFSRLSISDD

[7] = target: T9, cMG1 (TIS11b/ERF1 homologue) (Rattus norvegicus) (UniProt P17431); assay: binding assay; conditions: UV cross-linking, protein in a lysate after overexpression, protein details: C-terminal HA, label: 32P-UTP
T9 sequence (looked up, limits assumed): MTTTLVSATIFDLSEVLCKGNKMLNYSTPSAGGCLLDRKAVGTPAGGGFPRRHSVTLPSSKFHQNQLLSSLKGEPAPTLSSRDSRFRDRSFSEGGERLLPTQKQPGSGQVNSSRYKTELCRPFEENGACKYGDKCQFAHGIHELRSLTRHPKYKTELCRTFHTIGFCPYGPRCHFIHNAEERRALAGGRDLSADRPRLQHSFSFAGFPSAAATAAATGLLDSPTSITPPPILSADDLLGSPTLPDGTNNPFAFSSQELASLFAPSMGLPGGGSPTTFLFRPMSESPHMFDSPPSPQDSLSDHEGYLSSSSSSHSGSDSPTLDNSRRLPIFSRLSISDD

[8] = target: T5, TTP(1-173) (Homo sapiens); assay: binding assay; conditions: UV cross-linking; protein in a lysate after overexpression; protein details: C-terminal HA; label: 32P-UTP; variant of TNFa ARE probe 1309-1332
[9] = target: T6, TTP(97-173) (Homo sapiens); assay: binding assay; conditions: UV cross-linking; protein in a lysate after overexpression; protein details: C-terminal HA; label: 32P-UTP; variant of TNFa ARE probe 1309-1332
[10] = target: T7, TTP(97-326) (Homo sapiens); assay: binding assay; conditions: UV cross-linking; protein in a lysate after overexpression; protein details: C-terminal HA; label: 32P-UTP; variant of TNFa ARE probe 1309-1332
[11] = variant of TNFa ARE probe 1281-1350
[12] = variant of TNFa ARE probe 1309-1332

Question: Does “AGAUCUCAGGCCUUCCUACCUUCAGACCUUUCCAGACUCUUCCCUGAGGUGCAAUGCACAGCCUUCCUCACAGAGCCAGCCCCCCUCUAUUUAUAUUUGCACUU [TNFa probe 1197-1300 (one AUUUA)]” bind ([1]; barely detectable, variant of TNFa probe 1197-1350)?
Answer: Result: binds more weakly

Question: Which results are given for “AGAUCUCAGGCCUUCCUACCUUCAGACCUUUCCAGACUCUUCCCUGAGGUGCAAUGCACAGCCUUCCUCACAGAGCCAGCCCCCCUCUAUUUAUAUUUGCACUUAUUAUUUAUUAUUUAUUUAUUAUUUAUUUAUUUGCUUAUGAAUGUAUUUA [TNFa probe 1197-1350]”?
Answer: binding result [2]: binds; binding result (TTP C124R (Homo sapiens)): no binding; binding result (TTP C147R (Homo sapiens)): no binding; binding result (TTP S228A (Homo sapiens)): binds

Question: Does “GAAUUCACUGGAGCCUCGAAUGUCCAUUCCUGAGUUCUGCAAAGGGAGAGUGGUCAGGUUGCCUCUGUCUCAGAAUGAGGCUGGAUAAGAUCUCAGGCCUUCCUACCUUCAGACCUUUCCAGACUCUUCCCUGAGGUGCAAUGCACAGCCUUCCUCACAGAGCCAGCCCCCCUCUAUUUAUAUUUGCACUUAUUAUUUAUUAUUUAUUUAUUAUUU [TNFa probe 1110-1325 with 33 A tail]” bind (TTP C124R (Homo sapiens))?
Answer: Result: no binding

Question: Does “GAAUUCACUGGAGCCUCGAAUGUCCAUUCCUGAGUUCUGCAAAGGGAGAGUGGUCAGGUUGCCUCUGUCUCAGAAUGAGGCUGGAUAAGAUCUCAGGCCUUCCUACCUUCAGACCUUUCCAGACUCUUCCCUGAGGUGCAAUGCACAGCCUUCCUCACAGAGCCAGCCCCCCUCUAUUUAUAUUUGCACUUAUUAUUUAUUAUUUAUUUAUUAUUU [TNFa probe 1110-1325 with 33 A tail]” bind (TTP C147R (Homo sapiens))?
Answer: Result: no binding

Question: Does “GAAUUCACUGGAGCCUCGAAUGUCCAUUCCUGAGUUCUGCAAAGGGAGAGUGGUCAGGUUGCCUCUGUCUCAGAAUGAGGCUGGAUAAGAUCUCAGGCCUUCCUACCUUCAGACCUUUCCAGACUCUUCCCUGAGGUGCAAUGCACAGCCUUCCUCACAGAGCCAGCCCCCCUCUAUUUAUAUUUGCACUUAUUAUUUAUUAUUUAUUUAUUAUUU [TNFa probe 1110-1325 with 33 A tail]” bind ([1]; almost as well as 1281-1350, EMSA also positive)?
Answer: Result: binds

Question: Does “UUAUUUAUUUAUUAUUUAUUUAUU [TNFa ARE probe 1309-1332]” bind [2, 11]?
Answer: Result: binds

Question: Does “UUAUUUAUUUAUUAUUUAUUUAUU [TNFa ARE probe 1309-1332]” bind [3]?
Answer: Result: binds

Question: Does “UUAUUUAUUUAUUAUUUAUUUAUU [TNFa ARE probe 1309-1332]” bind [4]?
Answer: Result: binds

Question: Does “UUAUUUAUUUAUUAUUUAUUUAUU [TNFa ARE probe 1309-1332]” bind [5]?
Answer: Result: binds

Question: Does “UUAUUUAUUUAUUAUUUAUUUAUU [TNFa ARE probe 1309-1332]” bind [6, 11]?
Answer: Result: binds

Question: Does “UUAUUUAUUUAUUAUUUAUUUAUU [TNFa ARE probe 1309-1332]” bind [7, 11]?
Answer: Result: binds

Question: Does “UUGUUUGUUUGUUGUUUGUUUUUU [TNFa ARE probe 1309-1332 (A/G)]” bind [1, 12]?
Answer: Result: no binding

Question: Does “UUGUUUGUUUGUUGUUUGUUUUUU [TNFa ARE probe 1309-1332 (A/G)]” bind [8]?
Answer: Result: no binding

Question: Does “UUGUUUGUUUGUUGUUUGUUUUUU [TNFa ARE probe 1309-1332 (A/G)]” bind [9]?
Answer: Result: no binding

Question: Does “UUGUUUGUUUGUUGUUUGUUUUUU [TNFa ARE probe 1309-1332 (A/G)]” bind [10]?
Answer: Result: no binding

Question: Does “UUGUUUGUUUGUUGUUUGUUUUUU [TNFa ARE probe 1309-1332 (A/G)]” bind [6, 12]?
Answer: Result: no binding

Question: Does “UUGUUUGUUUGUUGUUUGUUUUUU [TNFa ARE probe 1309-1332 (A/G)]” bind [7, 12]?
Answer: Result: no binding
